The source of these data is PMC3625590, “NBM-T-L-BMX-OS01, Semisynthesized from Osthole, Is a Novel Inhibitor of Histone Deacetylase and Enhances Learning and Memory in Rats” (Evidence-based Complementary and Alternative Medicine : eCAM, 2013).

The subject of the test is Sco-induced amnesia rats. Put plainly: Passive one-way avoidance, Sco-induced memory impairment. In kind it is in vivo, Sprague-Dawley rats. Conditions: Sco 1.5 mg/kg/d; BMX or SAHA 5 mg/kg/d i.p.; 1 day and 7 days after footshock. How it is done:
SAHA was supplied by NatureWise Biotech and Medicals Corporation (Taipei, Taiwan). […] (St. Louis, MO, USA). The BMX and SAHA stock (100 mg/mL) was dissolved in DMSO and diluted with saline to a final concentration of 0.5 mg/mL (in 0.5% DMSO/saline). Sco was dissolved in saline to a final concentration of 0.15 mg/mL based on previous studies. SD rats were randomly divided into 3 groups. For the naïve animal experiments, the BMX-injected or SAHA-injected groups were injected with BMX (5 mg/kg/d) or SAHA (5 mg/kg/d) intraperitoneally 7 d prior to behavioral experiments and during the experimentation. The control group received the 0.5% DMSO/saline injection. The injection volume was 10 μL/g of body weight. The injections were performed once per day. For the amnesia experiment, the protocol was adopted from previous studies with modifications. The Sco-injected (SAHA + Sco) or (BMX + Sco)-injected groups were injected with Sco (1.5 mg/kg/d), SAHA (5 mg/kg/d) or BMX (5 mg/kg/d), intraperitoneally 7 d prior to behavioral experiments and during the experimentation. The control group received the 0.5% DMSO/saline injection. The injection volume was 10 μL/g of body weight. […] The behavioral task, including the training and testing procedures, was recorded between 8:00 AM and 6:00 PM. […]

Structures can show the parent of a compound that is named as a salt.

Take `CN1[C@@H]2C[C@@H](OC(=O)[C@H](CO)c3ccccc3)C[C@H]1[C@@H]1O[C@@H]12` [Sco, Scopolamine hydrochloride]: the “retention time in the illuminated chamber” value is recorded as “showed less retention time in the illuminated chamber”.
